According to PubChem BioAssay AID1508600 (Functional Genomics Laboratory (NCATS/FGL), 2020):
About 3,700 (7%) of roughly 53,000 sequences were called active.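 Rule for the calls: active = gene knockdowns whose robust z-score for IL-1 alpha signal is at least 2 or at most -2, so actives lie on both sides; inactive = the rest.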 Some of the results follow.

Assay: Components of the Cytosolic LPS Sensing Pathway: Gene Identification via Genome-wide siRNA Screen;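 note: robust z of the log signal after scaling to non-targeting control siRNA wells of the plate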
Conditions: RAW264.7 macrophages, IL-1a HTRF, actives lie on both sides, screened at 100 nM (by protocol), cells primed 5 h with Pam3CSK4 first
Outline: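 Knockdown: 100 nM siRNA, 48h, RAW264.7. Stimulation: Pam3CSK4 5 h, then LipidA via TransIT-TKO 24 h. Output: supernatant IL-1a HTRF, negative-control-normalized, log robust z-score; viability by CellTiter-Glo.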
For GGUUGGAUUCCUGAUAUUATT against Moxd2, the z-score was inactive: -0.22.
In the case of GGAGGACAUUGGUAAAAAUTT against Uba1, the z-score is reported as inactive: 1.54.
For GGGAAGCAACAGUAAACAUTT against Ccdc82, the z-score was inactive: -1.11.
With GGUGGACUUGUUUAAAAAGTT against Senp5 the z-score was inactive: 0.53.
In the case of GGGCUUUCUACGAACCAAGTT against Ovol1, the z-score is reported as inactive: -0.0783.
In the case of CGUGCUUUAUUGGAUCUGATT against Olah, the z-score is reported as inactive: -0.0911.
In the case of GGUCAAAACAAAAGGAGGGTT against Ncf4, the z-score is reported as inactive: 0.498.
With GCGAGUACCCUAAAAACAUTT against Mmp14 the z-score was inactive: -0.583.
For GGCAAAAAAAACUGCUAUATT against Adgrg7, the z-score was active: 3.36.
With GUAGAAGAGUUUCCCACGGTT against Gm5431 the z-score was inactive: -0.0238.
With CCUAUGGUGCUCUUAUAAATT against Dpp6 the z-score was inactive: -0.178.
With GGCAUAUGCAGGUAUCUGUTT against Defb5 the z-score was inactive: -0.127.
For CCCUUCUCUGAUUGUCUGATT against Lce3b, the z-score was inactive: -0.452.
For GGAAUCUCUGAAGAAGAAGTT against Jazf1, the z-score was inactive: -1.47.
With CCACAAUCUGGCUCCUUCUTT against Ceacam1 the z-score was inactive: -0.588.
In the case of CCCUCUCUUUGGAUACACATT against Tenm4, the z-score is reported as active: -2.98.
In the case of GGUAAGUUGUGUUUACUUATT against Aktip, the z-score is reported as inactive: 0.688.
In the case of GCUCAACACCUAUUCCGACTT against Matn3, the z-score is reported as inactive: -0.715.
In the case of GGUUCAACAGAAGAGGUGGTT against Exosc2, the z-score is reported as inactive: -1.23.
With CCUCCAAAAUGUGUCCACUTT against Krt10 the z-score was inactive: -0.753.
In the case of GCAAGAAUCAUCCGGUUACTT against Ttc39b, the z-score is reported as inactive: 1.36.
In the case of GGGAUUAGUUCUAAGACAATT against Dio3, the z-score is reported as inactive: 0.754.
In the case of GGCGUACAGUCACUAUGAGTT against Crym, the z-score is reported as inactive: -0.352.
In the case of GGGAGUGAAUGUUUCACAUTT against Tmem116, the z-score is reported as inactive: -1.56.
With UGUUCUGGAAUAGAGUAACTT against Asphd2 the z-score was inactive: 0.303.
For GGAGUUUACAGAAAUUAUCTT against Pecam1, the z-score was inactive: 0.214.
For GCCAGAUCUGUUAACCGCCTT against Gzmk, the z-score was active: 2.15.
With GAAUAGAGUCAAUGGAUAUTT against Rnf212 the z-score was inactive: 0.835.
For GGAGAUUAACCGCACUAUCTT against Snx19, the z-score was inactive: 1.12.
For GGGUUGAAUUCAGGUUCAATT against Rsad1, the z-score was inactive: -1.01.
For GGGCUAUGUAUUGUAAAUGTT against Nxf1, the z-score was active: -2.79.
For GCCUACCACGAAGCACUUUTT against Cd38, the z-score was inactive: -0.233.
In the case of GCAGUUUAAGAGAAUAAGGTT against Apaf1, the z-score is reported as inactive: -0.515.
For GGGAUAGCAAGACUUUCACTT against C5ar1, the z-score was inactive: 0.194.
For GGAAUUUGUACCAUGUAUCTT against Tshz2, the z-score was inactive: -0.177.
For GGCAGUGAGGUGUAUUGUUTT against Slc45a3, the z-score was inactive: -1.16.
In the case of GGCUGAUAUGACCAACUUUTT against Thumpd3, the z-score is reported as inactive: -0.58.
For GCUGUGUGGACAAAGUCUGTT against Clec4b1, the z-score was inactive: -0.398.
With GGAGUUCUUCAUUUACCGATT against Fbxw21 the z-score was inactive: 0.688.
With GCUCCGAAGUGUGAAGAUUTT against Kcnn1 the z-score was inactive: -1.39.
In the case of GGAAAGGAAACCAAGUAAATT against Phf14, the z-score is reported as inactive: -0.299.
For GGGUAUCAUUGUGAUCUCUTT against Slc10a3, the z-score was inactive: -0.484.
For CCAGAUGUCGGCAGAUAACTT against Pold4, the z-score was inactive: 0.446.
For CCUCUGAACCUGAAAAAGATT against Gm1968, the z-score was inactive: -0.605.
In the case of GCGAAUAAGUAACUUGGUUTT against Fam149a, the z-score is reported as inactive: -1.01.
In the case of GAAGAAACUCAUGACAAAUTT against Cox7b2, the z-score is reported as inactive: 1.92.
With CCUGAAUUCAGUCUGUUUUTT against Depdc1b the z-score was inactive: -0.931.
For CGUAAACACUCCUAACUUUTT against Hif1a, the z-score was inactive: -0.543.
For GGCCGGAAACUAAUCAGACTT against Mcm10, the z-score was inactive: 1.64.
For GGUAAUGUUCUCCUUUGAATT against Dok1, the z-score was active: 4.89.
For GGCUAUACCUUUGACUAUGTT against Csnk1g1, the z-score was inactive: 0.0256.
For GGAACUACUAGAAAAAGCATT against Plpbp, the z-score was inactive: -0.426.
For GGUCGAAAGAAGGCCUUUATT against Olfr131, the z-score was inactive: 0.634.
With CCUGUCGUCUCUCACUAGATT against Zfp9 the z-score was inactive: -0.288.
In the case of GCAAGCUACAUGCAUACAUTT against Zfp945, the z-score is reported as active: 3.59.
In the case of CGACAACAUUUUCCUGUCATT against Serpinc1, the z-score is reported as active: -2.07.
With CCGUAAACAACCUUAAGUUTT against Hagh the z-score was inactive: 1.55.
In the case of CCGAAAUCUCUCAUCGAUCTT against Sowaha, the z-score is reported as inactive: 0.178.
With GGCCAUUGAUCAAGACAAGTT against Glyat the z-score was inactive: 1.66.
For GGUGAUCACUAACAUGACATT against Smpdl3a, the z-score was inactive: 0.0438.
For CCGUGCACAACAUUGCCUATT against Qtrt1, the z-score was inactive: -0.552.
In the case of GGCUGUGUAUUACUGUGCCTT against Vpreb1, the z-score is reported as inactive: -0.352.
For GGUGUACGAACUUAGCCGGTT against Irf7, the z-score was inactive: 0.423.
For CCAUAAAUCAUGAACUGGUTT against Sesn3, the z-score was inactive: -1.41.
In the case of CGUGCUACAGAUGCGUCAUTT against Exoc8, the z-score is reported as inactive: 0.783.
For GGAAGGAAUUGGUUACCUATT against Cep72, the z-score was inactive: -0.2.
In the case of CGUCCUAGGAAUCUACUUUTT against Itgad, the z-score is reported as active: 2.63.
In the case of GCCUGCUAUUUAAUUCAUATT against Fam168a, the z-score is reported as inactive: -0.671.
For GGUGAUUCAGUUCAAAGUATT against Zrsr1, the z-score was inactive: 0.174.
For GGAAAUCCUUUAUAUGUUGTT against Cyp2c70, the z-score was inactive: -0.918.
In the case of GCUGCUGAGACGGUUACCUTT against Gtf3c3, the z-score is reported as inactive: 0.764.
With GGAGAGAUUAGCUCACAUGTT against Slc9a6 the z-score was inactive: -0.841.
With GGAAAACAUGUCACAUAAATT against Cd47 the z-score was inactive: -0.519.
In the case of GGAGGAGACCUUGAUUGAUTT against Cyp46a1, the z-score is reported as inactive: -1.28.
For GGAAGAAAAAUACCAGAAATT against Ubxn6, the z-score was inactive: 0.305.
With GGCUGUCUUCUGAUCAAUUTT against Adamts3 the z-score was active: 2.42.
With GCAAGAAACGGGAACUAUUTT against Mettl7b the z-score was inactive: 1.25.
For GGAUUAUGCAUAACCAUGATT against Pik3r1, the z-score was inactive: 0.96.
In the case of GGACUCUAGUUCUUCGUUUTT against H1f2, the z-score is reported as inactive: -0.798.
In the case of CCCGAAGUACCAAAAAGUUTT against Usp21, the z-score is reported as inactive: -0.573.
With GCACUCGGAUCAAUGCACATT against Cenpt the z-score was inactive: 0.183.
With CCAUGAUUCUUCGCACUGUTT against Olfr67 the z-score was inactive: -0.427.
For GCACGAAUUAUGGCACCGUTT against P2rx7, the z-score was inactive: -0.597.
In the case of GCUCUUAAGUACUUGGUCATT against Ddx47, the z-score is reported as inactive: -1.01.
With GGACUAUGUAGUGAAACAUTT against Pdia4 the z-score was inactive: -1.55.
With GCUGGUUAGACCCUUCCAATT against Hnf4g the z-score was active: 3.56.
For GGUCAUGAAAAAUGACAGCTT against Klra2, the z-score was inactive: 0.126.
With GGGAGGUACUCAAGGUUCATT against Tfe3 the z-score was inactive: 0.159.
With GGGAUGCGUUUGACUGGUGTT against Zfp455 the z-score was inactive: 0.443.
In the case of GGUGUUCUUCCUCUAUGAGTT against Chst2, the z-score is reported as inactive: -1.52.
With CCUCUUUAUCGGUGUUAUUTT against Scn11a the z-score was inactive: 1.03.
In the case of GGACAUGAACAGAGAAGUGTT against Zpr1, the z-score is reported as inactive: -0.207.
With GCUUAAUCCUUAGUCAGCATT against F2rl2 the z-score was inactive: -0.591.
With GGGAUCUUUGAGGAGUCUUTT against Snx12 the z-score was inactive: -0.0659.
With GGUCAAAGGAAAAAGAAAATT against Stag1 the z-score was inactive: -0.836.
For GCUUAUAACAGUUGAUGAGTT against Ndufs4, the z-score was inactive: -0.54.
For GCCAAGAUCCAGGUGUGGUTT against Sebox, the z-score was inactive: 0.192.
For GGAUUUGGAGCAGGUGGAUTT against Avpr1b, the z-score was inactive: -0.97.
With CCAUCAAACGGAUCCAGCATT against Mex3d the z-score was inactive: -1.15.
In the case of GGCAUCCUGAGAGAACUCATT against Insyn1, the z-score is reported as active: -2.27.
For GGAUACAAAUCCAGAUUCUTT against Pex26, the z-score was inactive: -0.982.
In the case of GGGUGAGAAAAUUCACGAGTT against Tubg2, the z-score is reported as inactive: 0.536.
For GGUUUCUGACCUCAAUAGUTT against Cmtm6, the z-score was inactive: 1.62.
In the case of GCGGGUGCUUUCUUGUUGUTT against Ackr1, the z-score is reported as inactive: 0.0775.
In the case of GCAUCUGUGCCGAUUAAAATT against Asb15, the z-score is reported as inactive: 1.32.
For GGACAAAAUUAAGGAUUGCTT against Foxg1, the z-score was inactive: 1.42.
For UCAGGUGAAGAUAAGGACATT against Olfr198, the z-score was inactive: 0.53.
